This note sets out measurements from US20150238483A1, “Traitement des neuronopathies motrices” (CENTRE NATIONAL DE LA RECHERCHE SCIENTIFIQUE- CNRS, priority 2012, published 2015).

Each structure is given as a SMILES string. Structures can show the parent of a compound that is named as a salt.

In this assay the test system is immortalized SMA fibroblasts. Briefly: Distribution of the SMN protein to Cajal bodies (CBs) in immortalized SMA fibroblasts, immunolabeling, cells counted. In kind it is cell-based, human. The following applies: immortalized type I line; for EC50: Homo sapiens, Fibroblast, dose-response on CBs with SMN. The method, then: This immortalization is described in the publication Lefebvre S, Burlet P, Viollet L, Bertrandy S, Huber C, Belser C and Munnich A. A novel association of the SMN protein with major non-ribosomal nucleolar proteins and its implication in spinal muscular atrophy. Hum Mol Genet (2002) 11 (9): 1017-1027.
The blockers of the invention are commercially available (for example from Sigma-Aldrich) and are sold in 96-well plates, at 2 milligrams per molecule per well to be dissolved in 1 ml of DMSO.
In order to determine whether the calcium channel blockers exerted a positive effect, the inventors counted the cells which had the SMN protein located in the CBs out of 100 cells randomly selected for each experiment.
This experiment was repeated three times.
A value of induction by a factor equal to 1 was arbitrarily assigned to DMSO.
In order to evaluate the relationship between the concentration (dose) and the effect (response) on the CBs of the immortalized SMA cells, the inventors constructed a dose-response curve for each of the molecules.

`CCCCc1oc2ccccc2c1C(=O)c1cc(I)c(OCCN(CC)CC)c(I)c1` [Amiodarone hydrochloride, (2-butyl-3-benzofuranyl)[4-[2-(diethylamino)ethoxy]-3,5-diiodophenyl]methanone hydrochloride] gave an EC50 of 0.06 ± 0.026 µM. The “Dilution at EC50” value (dilution relative to 2 μg/ml) is 1/50. With `Fc1ccc(C(c2ccc(F)cc2)N2CCN(C/C=C/c3ccccc3)CC2)cc1` [Flunarizine dihydrochloride, flunarizine dihydrochloride], the 50% effective concentration (EC50) was around 0.08 µM.
